Test results published in the supplement of paper PMC12823440, “Inhibitors supercharge kinase turnover through native proteolytic circuits” (Nature, 2025).
Where a name gives a salt, the structure may show the parent alone. The list shows a part of the results. The calls rarely recur for the same compound in another form.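 In K562 cells expressing nanoluciferase-fused kinases, luminescence was recorded at 4 h intervals between 2 and 18 h, normalized as percent of control with DMSO at 100% and a positive control at 0%. A significant (2 sigma) signal drop marks a time point as decreased. The authors' rule for a hit is not shown and takes in more than the number of time points.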

Amino acid sequences for entries named in this document (tags omitted). A change or cut given only in a name is not applied to a line headed by its entry.
UniProt O15530: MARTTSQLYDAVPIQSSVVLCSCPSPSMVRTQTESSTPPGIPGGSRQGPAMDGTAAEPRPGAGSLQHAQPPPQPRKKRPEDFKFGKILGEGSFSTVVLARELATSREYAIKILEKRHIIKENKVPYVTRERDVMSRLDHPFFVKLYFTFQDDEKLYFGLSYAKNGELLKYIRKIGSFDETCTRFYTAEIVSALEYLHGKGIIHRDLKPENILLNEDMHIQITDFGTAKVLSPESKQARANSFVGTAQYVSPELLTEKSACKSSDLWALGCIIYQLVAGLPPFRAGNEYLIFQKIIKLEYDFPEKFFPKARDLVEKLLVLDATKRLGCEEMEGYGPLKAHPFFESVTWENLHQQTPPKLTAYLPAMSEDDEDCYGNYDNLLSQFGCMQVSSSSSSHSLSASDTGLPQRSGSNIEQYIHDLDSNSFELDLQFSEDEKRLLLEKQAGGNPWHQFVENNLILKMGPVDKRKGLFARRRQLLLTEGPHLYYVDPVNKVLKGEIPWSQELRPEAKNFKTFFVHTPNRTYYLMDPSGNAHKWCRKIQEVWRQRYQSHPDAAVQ
UniProt P42356, whole entry, looked up: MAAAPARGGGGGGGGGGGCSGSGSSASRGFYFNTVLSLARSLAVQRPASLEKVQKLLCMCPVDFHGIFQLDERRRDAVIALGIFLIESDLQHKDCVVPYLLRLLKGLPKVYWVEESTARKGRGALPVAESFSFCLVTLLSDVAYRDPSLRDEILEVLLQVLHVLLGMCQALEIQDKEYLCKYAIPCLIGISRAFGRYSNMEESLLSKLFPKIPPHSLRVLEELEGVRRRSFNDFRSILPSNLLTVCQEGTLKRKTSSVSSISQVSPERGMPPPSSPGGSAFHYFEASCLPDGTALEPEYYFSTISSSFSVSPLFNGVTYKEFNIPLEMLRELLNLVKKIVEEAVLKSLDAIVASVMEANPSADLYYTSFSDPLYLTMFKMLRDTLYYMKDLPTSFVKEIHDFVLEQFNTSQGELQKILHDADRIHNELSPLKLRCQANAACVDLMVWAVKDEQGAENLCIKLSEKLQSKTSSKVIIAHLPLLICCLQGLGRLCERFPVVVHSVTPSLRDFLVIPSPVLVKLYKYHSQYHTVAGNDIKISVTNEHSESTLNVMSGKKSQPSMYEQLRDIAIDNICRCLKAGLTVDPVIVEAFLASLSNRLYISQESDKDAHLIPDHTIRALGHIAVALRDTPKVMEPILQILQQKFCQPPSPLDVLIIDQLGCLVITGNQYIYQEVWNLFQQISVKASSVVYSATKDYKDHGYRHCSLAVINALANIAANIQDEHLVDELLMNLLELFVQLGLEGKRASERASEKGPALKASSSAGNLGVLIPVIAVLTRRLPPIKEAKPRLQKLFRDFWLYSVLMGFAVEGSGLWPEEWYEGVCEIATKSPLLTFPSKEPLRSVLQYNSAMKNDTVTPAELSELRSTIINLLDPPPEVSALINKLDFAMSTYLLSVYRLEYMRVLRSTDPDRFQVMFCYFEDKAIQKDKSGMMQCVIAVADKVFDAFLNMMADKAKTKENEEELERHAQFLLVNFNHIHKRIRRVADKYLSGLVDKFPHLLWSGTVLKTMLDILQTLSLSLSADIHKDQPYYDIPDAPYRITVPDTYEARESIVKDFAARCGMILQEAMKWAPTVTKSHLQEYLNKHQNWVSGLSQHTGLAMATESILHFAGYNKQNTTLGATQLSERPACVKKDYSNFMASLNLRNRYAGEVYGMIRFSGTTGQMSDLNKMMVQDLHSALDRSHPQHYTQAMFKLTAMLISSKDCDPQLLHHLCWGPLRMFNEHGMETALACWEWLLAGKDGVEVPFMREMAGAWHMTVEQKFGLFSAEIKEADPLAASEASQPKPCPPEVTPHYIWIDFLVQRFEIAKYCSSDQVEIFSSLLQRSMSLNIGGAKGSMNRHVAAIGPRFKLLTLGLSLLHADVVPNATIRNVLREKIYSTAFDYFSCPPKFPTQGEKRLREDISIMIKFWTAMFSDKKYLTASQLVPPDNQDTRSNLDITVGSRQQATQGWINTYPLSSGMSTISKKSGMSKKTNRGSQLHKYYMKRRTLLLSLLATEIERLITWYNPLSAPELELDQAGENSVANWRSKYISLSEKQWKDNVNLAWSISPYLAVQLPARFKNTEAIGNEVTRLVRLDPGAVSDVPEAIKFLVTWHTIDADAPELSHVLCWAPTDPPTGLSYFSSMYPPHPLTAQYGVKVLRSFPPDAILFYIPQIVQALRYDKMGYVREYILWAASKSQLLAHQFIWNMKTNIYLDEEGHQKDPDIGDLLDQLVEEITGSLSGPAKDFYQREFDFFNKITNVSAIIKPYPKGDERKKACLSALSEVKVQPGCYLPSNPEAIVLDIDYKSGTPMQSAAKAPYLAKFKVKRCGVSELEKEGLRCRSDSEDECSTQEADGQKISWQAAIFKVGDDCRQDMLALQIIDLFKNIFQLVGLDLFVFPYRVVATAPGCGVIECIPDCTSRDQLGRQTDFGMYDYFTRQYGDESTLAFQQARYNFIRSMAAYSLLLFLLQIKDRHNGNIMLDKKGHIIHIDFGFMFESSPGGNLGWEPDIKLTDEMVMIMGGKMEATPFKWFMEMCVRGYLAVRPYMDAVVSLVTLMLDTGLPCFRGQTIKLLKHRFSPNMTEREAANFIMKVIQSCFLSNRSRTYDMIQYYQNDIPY

Target: PDPK1 (UniProt O15530)
Experiment: kinase-Nluc reporter destabilization hit call (1 = scored as downregulated) (binary); higher = compound decreases kinase abundance
Settings: K562; 2-18 h

kinase-Nluc reporter destabilization hit call, inactive:
O=C1N[C@@H](Cc2c[nH]c3ccccc23)C(=O)N2CCC[C@@H]12 [Brevianamide F] (10 µM) 0
Cn1nccc1Nc1nccc(-c2ccn([C@H](CO)c3ccc(Cl)c(F)c3)c(=O)c2)n1 [Ravoxertinib] (10 µM) 0
O=C(NCCN1CCOCC1)c1cc2c(Oc3ccc(NC(=O)C4(C(=O)Nc5ccc(F)cc5)CC4)cc3)ccnc2[nH]1 [Tyrosine kinase inhibitor] (10 µM) 0
COc1cc2c(N3CCN(C(=O)Nc4ccc(OC(C)C)cc4)CC3)ncnc2cc1OCCCN1CCCCC1 [Tandutinib (hydrochloride)] (10 µM) 0
COc1cc(/C=C/C(=O)NCC(O)c2ccc(O)cc2)ccc1O (centres undefined) [N-Feruloyloctopamine] (2.5 µM) 0
COc1cc2nccc(Oc3ccc(NC(=O)NC4CC4)c(Cl)c3)c2cc1C(N)=O [Lenvatinib (mesylate)] (10 µM) 0
CN1CCN(c2cccc(Nc3nc4c(-c5ccc(S(C)(=O)=O)cc5)cccn4n3)c2)CC1 (10 µM) 0
C=C(CC[C@@H](C(=O)O)[C@H]1[C@H](O)C[C@@]2(C)C3=C(CC[C@]12C)[C@@]1(C)CC[C@H](OC(C)=O)C(C)(C)[C@@H]1CC3)C(C)C [Pachymic acid] (10 µM) 0
O=c1[nH]c(=O)n([C@@H]2O[C@H](CO)[C@@H](O)[C@@H]2O)cc1/C=C/Br [Sorivudine] (10 µM) 0
NC(=O)c1ccc(-c2nc(-c3ccc4c(c3)OCCO4)c(-c3ccccn3)[nH]2)cc1 (10 µM) 0
CC#CC(=O)Nc1ccc2ncnc(Nc3cccc(Br)c3)c2c1 (10 µM) 0
CCc1c(C(=O)NNC(=O)C(O)c2cc(F)cc(F)c2)ccc(O)c1C (centres undefined) (10 µM) 0
CC(=O)c1c(C)cc2cccc(O)c2c1O [Nepodin] (10 µM) 0
Cc1c(-c2c(F)cc(C(N)=O)c3[nH]c4c(c23)CC[C@H](C(C)(C)O)C4)cccc1-n1c(=O)c2cccc(F)c2n(C)c1=O (2.5 µM) 0
CCc1cc2c(cc1N1CCC(N3CCOCC3)CC1)C(C)(C)c1[nH]c3cc(C#N)ccc3c1C2=O [Alectinib] (10 µM) 0
FC(F)c1nc2ccccc2n1-c1nc(N2CCOCC2)nc(N2CCOCC2)n1 (2 µM) 0
FC(F)(c1ccc2ncccc2c1)c1nnc2ccc(-c3ccncc3)nn12 (10 µM) 0
Cn1cc(-c2cnn3c(N)c(Br)c([C@@H]4CCCNC4)nc23)cn1 (2.5 µM) 0
C[C@@H]1COCCN1c1cc(C2([S@@](C)(=N)=O)CC2)nc(-c2ccnc3[nH]ccc23)n1 [(S)-Ceralasertib] (10 µM) 0
CC#CC(=O)N1CC[C@@H](n2c(=O)n(-c3ccc(Oc4ccccc4)cc3)c3c(N)ncnc32)C1 [Tirabrutinib] (10 µM) 0
C[C@@]1(c2ncncc2F)NC(=O)c2cc(-c3cn[nH]c3)ccc21 (10 µM) 0
COc1ccc(Cl)c(Nc2nc3ccccc3nc2NS(=O)(=O)c2cccc(NC(=O)C(C)(C)N)c2)c1 [Pilaralisib] (10 µM) 0
O=Nc1c(-c2c(O)[nH]c3ccc(I)cc23)[nH]c2ccccc12 [5-Iodo-indirubin-3'-monoxime] (10 µM) 0
COc1cc2nccc(Oc3ccc(NC(=O)NC4CC4)c(Cl)c3)c2cc1C(N)=O [Lenvatinib] (10 µM) 0
C[C@]1(O)CCN(c2nc(N3C[C@H](O)[C@@H](O)C3)cc(C(F)(F)F)c2C#N)C1 (10 µM) 0
Cn1cnc(Cn2ccc3ccc(CNCc4[nH]c5ccccc5c4[C@H]4NC(=O)c5ccc(O)cc54)cc32)c1 (10 µM) 0

Target: PIK4CA (UniProt P42356)
Experiment: as above
Settings: K562; 2-18 h

kinase-Nluc reporter destabilization hit call, inactive:
O=C(CSC1=NCCN1)NC1CCCCCC1 [ICCB-19 (hydrochloride)] (2.5 µM) 0
CCCS(=O)(=O)Nc1ccc(F)c(C(=O)c2c[nH]c3ncc(-c4ccc(Cl)cc4)cc23)c1F [Vemurafenib] (10 µM) 0
Cc1ccc(OCCSc2ncccn2)c(Br)c1 [ZLN024 (hydrochloride)] (10 µM) 0
Nc1ncnc2c1c(-c1ccc(Oc3ccccc3)cc1)nn2C1CCCC1 (2.5 µM) 0
COc1ncc(Cl)cc1S(=O)(=O)Nc1ccc(F)c(C#Cc2cnc(N)nc2)c1F (2.5 µM) 0
Cc1ccc(CNc2ncnc3ccc(-c4ccc(CO)o4)cc23)o1 (10 µM) 0
NC(=O)c1nnc(N[C@@H]2CCCC[C@@H]2N)nc1Nc1cccc2cc[nH]c12 (10 µM) 0
CNc1nc(Nc2ccc(C(=O)N3CCOCC3)cc2OC)nc2[nH]cc(Cl)c12 (2.5 µM) 0
CCNc1nc(Nc2cc(F)c(C(=O)N3CCOCC3)cc2OC)ncc1C(F)(F)F [GNE-7915 (tosylate)] (10 µM) 0
CCN1CCN(Cc2ccc(Nc3ncc(F)c(-c4cc(F)c5nc(C)n(C(C)C)c5c4)n3)nc2)CC1 [Abemaciclib] (2 µM) 0
COCCNc1nc2ccc(C#CC3(O)CCCCC3)cc2n1-c1ccnc(N)n1 (10 µM) 0
OCCn1cc(-c2ccc3c(c2)CC/C3=N\O)c(-c2ccncc2)n1 (10 µM) 0
O=C1N[C@@H](Cc2c[nH]c3ccccc23)C(=O)N2CCC[C@@H]12 [Brevianamide F] (10 µM) 0
Cn1nccc1Nc1nccc(-c2ccn([C@H](CO)c3ccc(Cl)c(F)c3)c(=O)c2)n1 [Ravoxertinib] (10 µM) 0
O=C(NCCN1CCOCC1)c1cc2c(Oc3ccc(NC(=O)C4(C(=O)Nc5ccc(F)cc5)CC4)cc3)ccnc2[nH]1 [Tyrosine kinase inhibitor] (10 µM) 0
COc1cc2c(N3CCN(C(=O)Nc4ccc(OC(C)C)cc4)CC3)ncnc2cc1OCCCN1CCCCC1 [Tandutinib (hydrochloride)] (10 µM) 0
COc1cc(/C=C/C(=O)NCC(O)c2ccc(O)cc2)ccc1O (centres undefined) [N-Feruloyloctopamine] (2.5 µM) 0
COc1cc2nccc(Oc3ccc(NC(=O)NC4CC4)c(Cl)c3)c2cc1C(N)=O [Lenvatinib (mesylate)] (10 µM) 0
CN1CCN(c2cccc(Nc3nc4c(-c5ccc(S(C)(=O)=O)cc5)cccn4n3)c2)CC1 (10 µM) 0
C=C(CC[C@@H](C(=O)O)[C@H]1[C@H](O)C[C@@]2(C)C3=C(CC[C@]12C)[C@@]1(C)CC[C@H](OC(C)=O)C(C)(C)[C@@H]1CC3)C(C)C [Pachymic acid] (10 µM) 0
O=c1[nH]c(=O)n([C@@H]2O[C@H](CO)[C@@H](O)[C@@H]2O)cc1/C=C/Br [Sorivudine] (10 µM) 0
NC(=O)c1ccc(-c2nc(-c3ccc4c(c3)OCCO4)c(-c3ccccn3)[nH]2)cc1 (10 µM) 0
CC#CC(=O)Nc1ccc2ncnc(Nc3cccc(Br)c3)c2c1 (10 µM) 0
CCc1c(C(=O)NNC(=O)C(O)c2cc(F)cc(F)c2)ccc(O)c1C (centres undefined) (10 µM) 0
CC(=O)c1c(C)cc2cccc(O)c2c1O [Nepodin] (10 µM) 0
Cc1c(-c2c(F)cc(C(N)=O)c3[nH]c4c(c23)CC[C@H](C(C)(C)O)C4)cccc1-n1c(=O)c2cccc(F)c2n(C)c1=O (2.5 µM) 0
CCc1cc2c(cc1N1CCC(N3CCOCC3)CC1)C(C)(C)c1[nH]c3cc(C#N)ccc3c1C2=O [Alectinib] (10 µM) 0
FC(F)c1nc2ccccc2n1-c1nc(N2CCOCC2)nc(N2CCOCC2)n1 (2 µM) 0
FC(F)(c1ccc2ncccc2c1)c1nnc2ccc(-c3ccncc3)nn12 (10 µM) 0
Cn1cc(-c2cnn3c(N)c(Br)c([C@@H]4CCCNC4)nc23)cn1 (2.5 µM) 0
C[C@@H]1COCCN1c1cc(C2([S@@](C)(=N)=O)CC2)nc(-c2ccnc3[nH]ccc23)n1 [(S)-Ceralasertib] (10 µM) 0
CC#CC(=O)N1CC[C@@H](n2c(=O)n(-c3ccc(Oc4ccccc4)cc3)c3c(N)ncnc32)C1 [Tirabrutinib] (10 µM) 0
C[C@@]1(c2ncncc2F)NC(=O)c2cc(-c3cn[nH]c3)ccc21 (10 µM) 0
COc1ccc(Cl)c(Nc2nc3ccccc3nc2NS(=O)(=O)c2cccc(NC(=O)C(C)(C)N)c2)c1 [Pilaralisib] (10 µM) 0
O=Nc1c(-c2c(O)[nH]c3ccc(I)cc23)[nH]c2ccccc12 [5-Iodo-indirubin-3'-monoxime] (10 µM) 0
COc1cc2nccc(Oc3ccc(NC(=O)NC4CC4)c(Cl)c3)c2cc1C(N)=O [Lenvatinib] (10 µM) 0
C[C@]1(O)CCN(c2nc(N3C[C@H](O)[C@@H](O)C3)cc(C(F)(F)F)c2C#N)C1 (10 µM) 0
Cn1cnc(Cn2ccc3ccc(CNCc4[nH]c5ccccc5c4[C@H]4NC(=O)c5ccc(O)cc54)cc32)c1 (10 µM) 0
